According to article PMC7045605:
These are yes or no findings as the source states them, for the method shown. A result given as binding can be weak or reduced; the word gives no strength. Where a sequence is shown, tags or fusion partners need not be part of it.

Molecular target: GST-UL36 recombinant protein (Dermacentor silvarum)
Assay: pull-down; Pierce GST Protein Interaction Pull-Down Kit; GST-UL36 or GST tag immobilised on glutathione agarose spin column, His-VirB10 captured, eluted with glutathione, western blot with anti-His tag; both purified

B1: His-VirB10 recombinant protein (protein, UniProt A0A2Z2LGU5 1-441)
chain: MSDETKDNNYGDGVEESVNVVGVHKSKKLFVVLVVCAITGMAYYAFFRSSGTTEKSEEPQPVIEKQDVDKLLKESEAPAQETAPRILTPPPKLPDLPPLVMPTAPELPMLTRITKKRKEEPVVEETKEILPPAADSFFEPELQRRSMEDDGPPQHIPMPYRPGGGGIPEPMPSFLGYDREKRGTPMIVLGGAGDSGAGEDSGGQGADSRFRTWSTLDGTSSPSVKATRVGDPGYVILQGHMIDAVLETAINSDIPGVLRAVVSRDVYAEAGNMVMIPKGSRLIGSYFFDASGNNTRVTVSWSRVILPHGIDIQINSAGTDELGRNGTSGVIDTKMGNVLTSTILLAGVSMGTAFVTSKIPALQSEIKDTTEEKGEKKKEEKSSTLPVKIVSDAVKDFSESMKSLIKKYADTTKPTIYVDQGTVMKVFVNQDIVFPREAVRR
For B1, the binding was “binds”.
